Consider 40 compounds from PubChem BioAssay AID2685 (National Center for Advancing Translational Sciences (NCATS), 2010).

The assay in a line: qHTS Assay for Lipid Storage Modulators in Drosophila S3 Cells.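 For cell number change: cells counted by Cell Tracker Red CMTPX staining in the red channel.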 The conditions noted are these: BODIPY lipid droplet fluorescence, 18-24 h; for cell number change: measured here: cell count max response, cells fed with added oleic acid. The method, boiled down:
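Drosophila S3 cells loaded with oleic acid (400 uM, as added) and compounds at several concentrations; lipid droplets imaged by 488-nm laser-scanning cytometry, 500–530 nm intensity and object ratio to cell channel. Percent activity normalized to 20 uM Triacsin C.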

Where [1] appears, read: measured here: lipid fluorescence (Fed channel) AC50, cells fed with added oleic acid.
Setting [2] is: measured here: cell number channel AC50, cells fed with added oleic acid.

As a reminder, the AC50 is the concentration at which the activity in the assay is half-maximal. A lower AC50 goes with greater potency.

SMILES strings stand for the structures. The list shows a part of the results. The main result of the screen is listed elsewhere. These columns were measured beside it and carry no call. Compounds called inactive in the main read-out are mostly missing here. Potencies come from curve fits of mixed quality, noted in brackets.

With `Cc1ccc(NC2CCCN(C(=O)C3CCCC3)C2)cc1C` (stereo not given), the cell number change is -4.09%. In addition, under setting [1], the AC50 is 0.291 µM [rising, full curve]. For `CSc1nc2ccc(NS(=O)(=O)c3ccccc3F)cc2s1`, the cell number change was 9.97%. Also, the AC50 under setting [1] is 0.13 µM [falling, full curve, poor fit]. On to `c1ccc(-c2ccccn2)nc1`, for which the cell number change was -16.5%. For the same compound, the AC50 under setting [1] is 4.11 µM [falling, full curve, poor fit]. As to `CC1(C)CC(NC(=O)COc2ccc3ccccc3c2)CC(C)(C)N1`, the cell number change was determined as 33.5%. In addition, the AC50 under setting [2] is 6.51 µM [rising, full curve, poor fit]. Regarding `COc1ccc(NS(=O)(=O)c2cccs2)cc1S(=O)(=O)N1CCOCC1`, the cell number change amounted to 16.7%. Further, the AC50 under setting [1] was 6.51 µM [rising, single point]. Take `CSCc1cc(N2CCOCC2)nc(SCc2ccc(Cl)cc2Cl)n1`: the AC50 under setting [1] is 0.58 µM [rising, single point]. On to `O=C(CN1CCN(c2cccc(Cl)c2)CC1)NCc1ccccc1`, for which the cell number change is -35.4%. The AC50 under setting [2] was 29.1 µM [falling, single point]. Besides, the AC50 under setting [1] is 29.1 µM [falling, single point]. Consider `CCOC(=O)c1c(OCC)[nH]c2c1cc(O)c1ccccc12`, for which the cell number change is -48.7%. Moreover, under setting [2], the AC50 is 14.6 µM [falling, partial curve]. Moreover, the AC50 under setting [1] is 14.6 µM [falling, partial curve]. Take `Cc1ccn2c(C(=O)CSc3ccc(Cl)cc3)c(C)nc2c1`: the cell number change turned out to be 67.6%. Moreover, the AC50 under setting [2] is 5.17 µM [rising, full curve]. Under setting [1], the AC50 was 13 µM [rising, partial curve]. In the case of `COc1ccccc1N1C(=NC(=O)COc2ccccc2)SC2CS(=O)(=O)CC21` (stereo not given), the cell number change is -10.4%.

For `CC(C)C(=O)N(c1ccc2oc(=O)sc2c1)S(=O)(=O)c1cccs1`, the cell number change was 1.48%. Besides, the AC50 under setting [1] is 29.1 µM [falling, single point]. Consider `COc1ccc(C(=O)NCC(=O)OCC(=O)NCc2cccs2)cc1`, for which the cell number change was -41%. In addition, under setting [2], the AC50 was 18.4 µM [falling, single point]. Take `N#CCSc1nc(-c2ccccc2)nc2ccc(F)cc12`: the cell number change is 2.36%. Under setting [1], the AC50 was 29.1 µM [falling, single point]. With `O=C(NCCNc1ccc(Cl)cc1[N+](=O)[O-])c1cccnc1`, the cell number change was -31.6%.

For `O=[N+]([O-])c1cccc(NC(=S)NCCc2ccccc2)c1`, the cell number change is -27%. In addition, under setting [1], the AC50 was 20.6 µM [falling, single point]. For `CCNc1nc(NC(C)C)nc(OCC)n1`, the cell number change came to 5.7%. For the same compound, the AC50 under setting [2] was 0.517 µM [rising, single point]. The AC50 under setting [1] was 4.61 µM [falling, single point].

As to `COC(=O)c1ccc(C)c(NC(=O)C2CC(=O)N(C3CCCC(C)C3C)C2)c1` (stereo not given), the cell number change is -13%. Further, the AC50 under setting [1] was 29.1 µM [falling, single point].

In the case of `CSc1ccccc1OCc1cc(C(=O)NCCn2ccnc2C)no1`, the cell number change was determined as 28.2%. The AC50 under setting [2] is 0.651 µM [rising, full curve, poor fit]. In addition, the AC50 under setting [1] is 29.1 µM [rising, single point]. `Cc1ccc(-c2nc3ccccc3s2)cc1NC(=S)NC(=O)c1cccc2ccccc12`: the cell number change came to 6.3%. Besides, the AC50 under setting [2] was 6.51 µM [rising, single point]. The AC50 under setting [1] is 29.1 µM [rising, single point].

Take `Cc1cccc(NC(=O)CCN2C(=O)c3ccccc3C2=O)c1`: the cell number change was -27.8%. Regarding `Cc1noc(C)c1C(=O)NCC1COc2ccccc2O1` (stereo not given), the cell number change is -5.24%. Under setting [2], the AC50 was 0.0461 µM [falling, full curve, poor fit]. For the compound `CC(=O)Nc1nc2cc(C(N)=O)ccc2s1`, the cell number change was -3.5%. Consider `COc1cc(NC(=O)CSc2nnc(-c3ccncc3)n2C2CCCCC2)ccc1NC(=O)c1ccco1`, for which the AC50 is, setting by setting: under setting [2], 0.651 µM [rising, single point]; under setting [1], 0.00461 µM [rising, full curve, poor fit]. Regarding `Cn1nc(C(=O)NNC(=O)c2ccc(Cl)cc2)ccc1=O`, the cell number change was -29.7%. Regarding `O=C(Nc1ccn(Cc2ccccc2F)n1)c1ccc(COc2ccc(Cl)cc2Cl)o1`, the cell number change was -21.1%. Further, under setting [1], the AC50 was 29.1 µM [falling, single point]. For the compound `Cc1ccc(O)c(C(=O)c2cnn(-c3ccccc3)c2)c1`, the cell number change was determined as 27.6%. Consider `COc1ccc(CN(C)C(=O)c2ccc(OCC(=O)N3CCOCC3)c(OC)c2)cc1`, for which the cell number change is -3.48%. Besides, the AC50 under setting [1] is 2.59 µM [rising, partial curve, poor fit]. With `Cc1cc(N2CCCCC2)nc2ccc(NC(=O)c3ccc(Br)o3)cc12`, the cell number change came to 17.1%. Further, the concentration at half-maximal activity (AC50) under setting [2] was 1.03 µM [rising, full curve, poor fit]. Moreover, under setting [1], the concentration at half-maximal activity (AC50) was 1.03 µM [rising, partial curve]. For the compound `COc1ccc2c(c1)OC[C@H]1[C@H]2N2C(=O)[C@H](C)NC(=O)[C@@]2(C)[C@H]1c1ccccc1`, the cell number change is -11.2%. As to `O=C(CCNC(=O)c1ccccc1Cl)NN1C(=O)NC2(CCCCC2)C1=O`, the cell number change was -50%. For the same compound, the AC50 under setting [2] was 0.731 µM [falling, partial curve, poor fit]. Consider `C=CCn1c(CSc2nc3ccccc3s2)nnc1SCC(=O)NCc1ccccc1`, for which the cell number change is -70.8%. The AC50 under setting [2] is 5.17 µM [falling, full curve]. The AC50 under setting [1] was 4.11 µM [falling, full curve]. `COc1ccc(/C=C/C(=O)Nc2cc(C(F)(F)F)ccc2Cl)cc1OC`: the cell number change is -13.6%. The AC50 under setting [1] was 16.4 µM [falling, single point]. Turning to `CCOc1cccc(-c2cc(C(=O)N/N=C/c3ccc(OC)c(CN4CCOCC4)c3)c3ccccc3n2)c1`, the cell number change is 10.1%. For the same compound, under setting [1], the AC50 is 2.31 µM [falling, partial curve]. As for `COc1ccc(NC(=S)NCCc2c[nH]c3ccccc23)cc1`, the cell number change is 7.15%. The same measure, in the same setting: the figure for `Cc1ccc(S(=O)(=O)N2CCN(CC(=O)N/N=C/c3ccc(Br)s3)CC2)cc1` is -15.5%. Turning to `CCOc1ccc(OCCC(=O)OCC(=O)Nc2ccc(N3CCOCC3)cc2)cc1`, the cell number change was 17.5%. Further, the AC50 under setting [1] is 5.8 µM [falling, single point]. As to `O=C(CSc1ccsc1[N+](=O)[O-])Nc1cccc(F)c1`, the cell number change was 17.2%. In the case of `Cc1ccc(C)c(OCCC(=O)OCC(=O)NC2CCCC2)c1`, the cell number change was -0.22%. Under setting [1], the AC50 is 1.3 µM [rising, full curve, poor fit]. Regarding `Clc1ccccc1-c1nn2c(-c3ccncc3)nnc2s1`, under setting [1], the AC50 was 0.291 µM [rising, partial curve, poor fit]. Turning to `COc1ccc2oc(C(=O)N3CCN(C/C=C/c4ccccc4)CC3)c(C)c2c1`, the cell number change was -18.8%.
